{
  "sequences": {"note": "Amino acid sequences for entries named in this document (tags omitted).", "UniProt Q0JBA9, entry or part of it": "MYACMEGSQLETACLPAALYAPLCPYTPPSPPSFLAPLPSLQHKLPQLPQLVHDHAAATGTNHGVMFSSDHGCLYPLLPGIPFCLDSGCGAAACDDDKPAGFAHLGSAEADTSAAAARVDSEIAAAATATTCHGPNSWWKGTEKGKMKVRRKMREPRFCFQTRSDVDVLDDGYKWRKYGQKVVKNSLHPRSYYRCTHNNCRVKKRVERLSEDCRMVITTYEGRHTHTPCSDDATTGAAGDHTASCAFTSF"},
  "source": "paper PMC7819943",
  "about": "“Rice protein-binding microarrays: a tool to detect cis-acting elements near promoter regions in rice”",
  "note": "Some of the results follow.",
  "data": [
    {"target": "OsWRKY34 (Oryza sativa, UniProt Q0JBA9 1-250)", "experiment": "protein-binding microarray (RPBM); PBS, 2% BSA, 51.3 ng/ul salmon testes DNA, 50 uM zinc acetate, 200 nM TF, 25 C, 1 h; high values mean tight binding", "conditions": "protein: recombinant; tags: N-terminal polyhistidine and DsRed monomer fusion (pET32a); label: CyDye5-dUTP incorporated in the synthesized complementary strand; 3' TTTTT single-stranded linker to array surface; dsDNA, one strand shown", "summary_of_the_method": "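Binding signal is reported as fluorescence intensity per feature (arbitrary units) from an Axon 4000B scanner. Incubation used 200 nM of each Ni–NTA-purified, N-terminally polyhistidine- and DsRed-fused transcription factor from E. coli BL21-CodonPlus on a double-stranded custom Agilent array for 1 h at 25 °C, with 50 µM zinc acetate in the buffer, followed by washing.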", "values": [
      {"sequence": "TTCTATCTTGCTCGCTGTGGGCTTGGTGGCCTTGGAGTTGCGGAGTCACCTAGTGCAG", "binding signal": "8090 fluorescence intensity (a.u.)"},
      {"sequence": "CACCTAGCACGAACACCCAACGCCGCCGCTCGATCTCATCCGGAGTCACCTAGTGCAG", "binding signal": "8920 fluorescence intensity (a.u.)"},
      {"sequence": "CCCACCTGCGTGGGGTCAACCGGTCAACGCGCCACACGCTCGGAGTCACCTAGTGCAG", "binding signal": "9520 fluorescence intensity (a.u.)"},
      {"sequence": "GTACCTTGTCCTATTTTCCATGCCAGCCAAGCATCCAACCCGGAGTCACCTAGTGCAG", "binding signal": "8140 fluorescence intensity (a.u.)"},
      {"sequence": "ATATCTTCTCCTATCTCATTTCTCAACTGAATGACTCGATCGGAGTCACCTAGTGCAG", "binding signal": "8430 fluorescence intensity (a.u.)"},
      {"sequence": "ATCCAAACCCACGCACACACTCTTTTCTCTCCTCTCCTTCCGGAGTCACCTAGTGCAG", "binding signal": "10500 fluorescence intensity (a.u.)"},
      {"sequence": "CTCCAGTCCAGACTTGTTTAGTTTTAAACCTAAATTTTACCGGAGTCACCTAGTGCAG", "binding signal": "8050 fluorescence intensity (a.u.)"},
      {"sequence": "GATTGTTTCCCTATTGAATTTCTGGTCGTTACCTAATTTGCGGAGTCACCTAGTGCAG", "binding signal": "8090 fluorescence intensity (a.u.)"},
      {"sequence": "AGCAGCCTACACTCGCCAACAAAAGTACTACCACCTCACGCGGAGTCACCTAGTGCAG", "binding signal": "8060 fluorescence intensity (a.u.)"},
      {"sequence": "ACCTTTTCCCATCCCCTTTCCCTCGTTTTCCGCGTGCACGCGGAGTCACCTAGTGCAG", "binding signal": "8590 fluorescence intensity (a.u.)"},
      {"sequence": "CGCACTATCGCTTGCTTTCCTTGGGCGTCGGTCCAGCCAACGGAGTCACCTAGTGCAG", "binding signal": "8160 fluorescence intensity (a.u.)"},
      {"sequence": "CATTATTATTTTCTCTGTCAATATTTGATTCTAACCGATCCGGAGTCACCTAGTGCAG", "binding signal": "8240 fluorescence intensity (a.u.)"},
      {"sequence": "TTTATCCTCCTTTGACTTCCCACATATTTCTTTACCTACTCGGAGTCACCTAGTGCAG", "binding signal": "9430 fluorescence intensity (a.u.)"},
      {"sequence": "GCTCCTCGTCGTCGTCTCTCTCTCCTGCCTAGCTCTGGCCCGGAGTCACCTAGTGCAG", "binding signal": "9190 fluorescence intensity (a.u.)"},
      {"sequence": "CGCGCGCGCGCGCGTACGTGGGAACAGAGAGCGGCGCCGACGGAGTCACCTAGTGCAG", "binding signal": "27900 fluorescence intensity (a.u.)"},
      {"sequence": "CTTTCTTTCTTTCTTTGTGCCCAACTCTGACACGACTCACCGGAGTCACCTAGTGCAG", "binding signal": "10800 fluorescence intensity (a.u.)"},
      {"sequence": "TCTTCCACCAAGAACACCTTGTTCATCCTCTGCTCCGCGTCGGAGTCACCTAGTGCAG", "binding signal": "8560 fluorescence intensity (a.u.)"},
      {"sequence": "TATACTGGTAGCTTATTAGCCTCAATCACCCTCCTGTTTCCGGAGTCACCTAGTGCAG", "binding signal": "8140 fluorescence intensity (a.u.)"},
      {"sequence": "AATGTCTAATCAAGTAATCATCATGTGGTCAATTATCACACGGAGTCACCTAGTGCAG", "binding signal": "8240 fluorescence intensity (a.u.)"},
      {"sequence": "TTTTTGGGTTGATATATTGCTGAATGGTCATTTTCTGGGTCGGAGTCACCTAGTGCAG", "binding signal": "9890 fluorescence intensity (a.u.)"},
      {"sequence": "GCGGCGGCGGCGGGGAGGGGTGCTTCTGCCACCTGCTCCGCGGAGTCACCTAGTGCAG", "binding signal": "13400 fluorescence intensity (a.u.)"},
      {"sequence": "TACTTTACATCGTTGCTTCATGTAATACATTAATTTATACCGGAGTCACCTAGTGCAG", "binding signal": "8460 fluorescence intensity (a.u.)"},
      {"sequence": "CTCCTCTTCTTCTCTTCTCCTTCGTTGGGCGTGGGCGTCGCGGAGTCACCTAGTGCAG", "binding signal": "12400 fluorescence intensity (a.u.)"},
      {"sequence": "GTGGTGGTGGTGGTCGCCGTCGTGAACGATTCCTTTTTCTCGGAGTCACCTAGTGCAG", "binding signal": "14300 fluorescence intensity (a.u.)"},
      {"sequence": "CCTATCGTCTGTAAACTGCATTTCGCCATATAGCTTTGTTCGGAGTCACCTAGTGCAG", "binding signal": "8270 fluorescence intensity (a.u.)"},
      {"sequence": "ATCTGTAACCCGCTGCTCTTTTCTCTCCTTATTTATCTTCCGGAGTCACCTAGTGCAG", "binding signal": "9180 fluorescence intensity (a.u.)"},
      {"sequence": "GGAATTCAGGGAAATGTCTCTCTCCTCCACGCTGCATTGTCGGAGTCACCTAGTGCAG", "binding signal": "9260 fluorescence intensity (a.u.)"},
      {"sequence": "TCTGTTTTGGTATGGGGAACCTGCCCTGTCGTTGTCAAGTCGGAGTCACCTAGTGCAG", "binding signal": "11700 fluorescence intensity (a.u.)"},
      {"sequence": "GCTCCGTCCGTTCACACGCGCCGTCACGCGTACGACTCCGCGGAGTCACCTAGTGCAG", "binding signal": "10200 fluorescence intensity (a.u.)"},
      {"sequence": "TGATAATATGGTCCATTAACTTCTACCTTTACCTATCGTTCGGAGTCACCTAGTGCAG", "binding signal": "10700 fluorescence intensity (a.u.)"},
      {"sequence": "TAATTTCTTGCTTGGTCTGCAGTTGCTTGGTGAACAGTATCGGAGTCACCTAGTGCAG", "binding signal": "9970 fluorescence intensity (a.u.)"},
      {"sequence": "AACGCGTTGATTTTTTTAGACATGTTTGACTGTTTGTCTTCGGAGTCACCTAGTGCAG", "binding signal": "9860 fluorescence intensity (a.u.)"},
      {"sequence": "ACCGTATTGTTTTCTTTTCATCGTTAGCTTCTCTTAGAAACGGAGTCACCTAGTGCAG", "binding signal": "8150 fluorescence intensity (a.u.)"},
      {"sequence": "TCAAGATTTGGTTTATCCTTCGACTGTGTTCATCCTTCGACGGAGTCACCTAGTGCAG", "binding signal": "9940 fluorescence intensity (a.u.)"},
      {"sequence": "TAGGTGTTCTTGTTGCCGTCCTGATTCTATACACGGAAAACGGAGTCACCTAGTGCAG", "binding signal": "8120 fluorescence intensity (a.u.)"},
      {"sequence": "TACACTTACATTCCCATCAAAATCCTACGTTTTTCCTATTCGGAGTCACCTAGTGCAG", "binding signal": "9320 fluorescence intensity (a.u.)"},
      {"sequence": "TAGAACTGTGTTTAGTGTCCTCTTCATATGTTTCTAGACTCGGAGTCACCTAGTGCAG", "binding signal": "8300 fluorescence intensity (a.u.)"},
      {"sequence": "TCTCTCTGTACTCTCTCTCTCTCTGTGTGTTTTTTTGAGACGGAGTCACCTAGTGCAG", "binding signal": "9000 fluorescence intensity (a.u.)"},
      {"sequence": "ACTATTCACATTTTCACATCTCCTAGAGCCATTCCACCTTCGGAGTCACCTAGTGCAG", "binding signal": "10500 fluorescence intensity (a.u.)"},
      {"sequence": "CACCTCCGTCTCACTCCTCCAGGCACGCTAGCCACGATGCCGGAGTCACCTAGTGCAG", "binding signal": "8760 fluorescence intensity (a.u.)"},
      {"sequence": "AATGTATATCCTTTTTATCCGTTTTCTTTTGAGTGCTACACGGAGTCACCTAGTGCAG", "binding signal": "11300 fluorescence intensity (a.u.)"},
      {"sequence": "AATAAGATAGTGTTGGTAACGGGGCATGGGATCTCGACCGCGGAGTCACCTAGTGCAG", "binding signal": "8380 fluorescence intensity (a.u.)"}
    ]}
  ]
}
